The series is described as follows: general procedure: Fmoc solid-phase peptide synthesis; Rink Amide MBHA resin (0.58 mmol/g or 0.78 mmol/g); Wang resin for C-terminal acids; DIC/HOBt. The settings on record: whole synthesis; for purity (crude or final not stated) / final HPLC purity: analytical HPLC; for purity (crude or final not stated): scale of the general procedure 0.090 mmol.

Bridge positions count the residues as written; N and C are the ends. Square brackets hold non-standard residues; d marks the D form. Ends that are not written are not given here. * marks the point of attachment. Hydrocinnamoyl(4-Me) = Cc1ccc(CCC(=O)*)cc1; X1 = O=C(CN1CCN(CCO)CC1)*; hCys = N[C@@H](CCS)C(=O)O; Isobutyryl = CC(C)C(=O)*; Octanoyl = CCCCCCCC(=O)*; Orn = NCCC[C@H](N)C(=O)O; Aoc = NCCCCCCCC(=O)O; βAla = NCCC(=O)O

In the case of “Isobutyryl-[Orn]KWIQE-NH2 (lactam 1-6; SMILES CC[C@H](C)[C@@H]1NC(=O)[C@H](Cc2c[nH]c3ccccc23)NC(=O)[C@H](CCCCN)NC(=O)[C@@H](NC(=O)C(C)C)CCCNC(=O)CC[C@@H](C(N)=O)NC(=O)[C@H](CCC(N)=O)NC1=O)”, the “purity (crude or final not stated)” value is listed as 87.4%.
As to “Ac-[Orn]KWIQD-NH2 (lactam 1-6; SMILES CC[C@H](C)[C@@H]1NC(=O)[C@H](Cc2c[nH]c3ccccc23)NC(=O)[C@H](CCCCN)NC(=O)[C@@H](NC(C)=O)CCCNC(=O)C[C@@H](C(N)=O)NC(=O)[C@H](CCC(N)=O)NC1=O)”, the “purity (crude or final not stated)” value was found to be 97.4%.
On to “{CH2CO}-KWIQ[hCys]-NH2 (thioether N-5; SMILES CC[C@H](C)[C@@H]1NC(=O)[C@H](Cc2c[nH]c3ccccc23)NC(=O)[C@H](CCCCN)NC(=O)CSCC[C@@H](C(N)=O)NC(=O)[C@H](CCC(N)=O)NC1=O)”, for which, for the setting “scale 0.117 mmol”, the “final HPLC purity” value is listed as 95%, the crude mass entry is listed as “˜95 mg”, the isolated mass came to 25.8 mg and the isolated yield came out at 30% yield.
For the substance c(Adipoyl-Lys-Trp-Ile-Gln-Lys)-NH2, the “purity (crude or final not stated)” value came out at 99.9%.
On to “Ac-KKWIQD-NH2 (lactam 1-6; SMILES CC[C@H](C)[C@@H]1NC(=O)[C@H](Cc2c[nH]c3ccccc23)NC(=O)[C@H](CCCCN)NC(=O)[C@@H](NC(C)=O)CCCCNC(=O)C[C@@H](C(N)=O)NC(=O)[C@H](CCC(N)=O)NC1=O)”, for which the “purity (crude or final not stated)” value came to 99.9%.
As for “[βAla]KWQD-NH2 (lactam N-5; SMILES NCCCC[C@@H]1NC(=O)CCNC(=O)C[C@@H](C(N)=O)NC(=O)[C@H](CCC(N)=O)NC(=O)[C@H](Cc2c[nH]c3ccccc23)NC1=O)”, the “purity (crude or final not stated)” value is given as 99%.
Same read-out and setting: for “H-[dC][dQ][dI][dW][dK][dQ][dK][dP][dD]K(Octanoyl)[dL][dC]-OH (disulfide 1-12; SMILES CCCCCCCC(=O)NCCCC[C@@H]1NC(=O)[C@@H](CC(=O)O)NC(=O)[C@H]2CCCN2C(=O)[C@@H](CCCCN)NC(=O)[C@@H](CCC(N)=O)NC(=O)[C@@H](CCCCN)NC(=O)[C@@H](Cc2c[nH]c3ccccc23)NC(=O)[C@@H]([C@H](C)CC)NC(=O)[C@@H](CCC(N)=O)NC(=O)[C@H](N)CSSC[C@H](C(=O)O)NC(=O)[C@@H](CC(C)C)NC1=O)” the value was 99%.
On to “X1-[dC][dQ][dI][dW][dK][dQ][dK][dP][dD][dL][dC]-NH2 (disulfide 1-11; SMILES CC[C@@H](C)[C@H]1NC(=O)[C@@H](CCC(N)=O)NC(=O)[C@H](NC(=O)CN2CCN(CCO)CC2)CSSC[C@H](C(N)=O)NC(=O)[C@@H](CC(C)C)NC(=O)[C@@H](CC(=O)O)NC(=O)[C@H]2CCCN2C(=O)[C@@H](CCCCN)NC(=O)[C@@H](CCC(N)=O)NC(=O)[C@@H](CCCCN)NC(=O)[C@@H](Cc2c[nH]c3ccccc23)NC1=O)”, for which the “purity (crude or final not stated)” value was determined as 99%.
Same read-out and setting: then “H-DPCKQKWIQC-NH2 (disulfide 3-10; SMILES CC[C@H](C)[C@@H]1NC(=O)[C@H](Cc2c[nH]c3ccccc23)NC(=O)[C@H](CCCCN)NC(=O)[C@H](CCC(N)=O)NC(=O)[C@H](CCCCN)NC(=O)[C@@H](NC(=O)[C@@H]2CCCN2C(=O)[C@@H](N)CC(=O)O)CSSC[C@@H](C(N)=O)NC(=O)[C@H](CCC(N)=O)NC1=O)”, with 95%; and “Ac-LDPKCQKWIQC-NH2 (disulfide 5-11; SMILES CC[C@H](C)[C@@H]1NC(=O)[C@H](Cc2c[nH]c3ccccc23)NC(=O)[C@H](CCCCN)NC(=O)[C@H](CCC(N)=O)NC(=O)[C@@H](NC(=O)[C@H](CCCCN)NC(=O)[C@@H]2CCCN2C(=O)[C@H](CC(=O)O)NC(=O)[C@H](CC(C)C)NC(C)=O)CSSC[C@@H](C(N)=O)NC(=O)[C@H](CCC(N)=O)NC1=O)”, with 86.5%.
On to “H-DPKCQKWIQC-NH2 (disulfide 4-10; SMILES CC[C@H](C)[C@@H]1NC(=O)[C@H](Cc2c[nH]c3ccccc23)NC(=O)[C@H](CCCCN)NC(=O)[C@H](CCC(N)=O)NC(=O)[C@@H](NC(=O)[C@H](CCCCN)NC(=O)[C@@H]2CCCN2C(=O)[C@@H](N)CC(=O)O)CSSC[C@@H](C(N)=O)NC(=O)[C@H](CCC(N)=O)NC1=O)”, for which the “purity (crude or final not stated)” value amounted to 99%.
On the same count and under the same terms, then “[aminoPeg10-oxaglutaryl]-c(D-Cys-D-Gln-D-Ile-D-Trp-D-Lys-D-Gln-D-Lys-D-Pro-D-Asp-D-Leu-D-Cys)-NH2”, with 95%.
With “H-CKWIQC-NH2 (disulfide 1-6; SMILES CC[C@H](C)[C@@H]1NC(=O)[C@H](Cc2c[nH]c3ccccc23)NC(=O)[C@H](CCCCN)NC(=O)[C@@H](N)CSSC[C@@H](C(N)=O)NC(=O)[C@H](CCC(N)=O)NC1=O)”, for the setting “scale 0.090 mmol”, the “final HPLC purity” value is on record as 95.4%, the isolated mass is recorded as 31.5 mg and the isolated yield is listed as 45% yield.
Turning to “{Hydrocinnamoyl(4-Me)}-CKWIQC-NH2 (disulfide 1-6; SMILES CC[C@H](C)[C@@H]1NC(=O)[C@H](Cc2c[nH]c3ccccc23)NC(=O)[C@H](CCCCN)NC(=O)[C@@H](NC(=O)CCc2ccc(C)cc2)CSSC[C@@H](C(N)=O)NC(=O)[C@H](CCC(N)=O)NC1=O)”, the “purity (crude or final not stated)” value came to 99.9%.
Same read-out and setting: then “H-[dC][dQ][dI][dW][dK][dQ][dK][dP][dD][dL][dC]E[Aoc]-OH (disulfide 1-11; SMILES CC[C@@H](C)[C@H]1NC(=O)[C@@H](CCC(N)=O)NC(=O)[C@H](N)CSSC[C@H](C(=O)N[C@@H](CCC(=O)O)C(=O)NCCCCCCCC(=O)O)NC(=O)[C@@H](CC(C)C)NC(=O)[C@@H](CC(=O)O)NC(=O)[C@H]2CCCN2C(=O)[C@@H](CCCCN)NC(=O)[C@@H](CCC(N)=O)NC(=O)[C@@H](CCCCN)NC(=O)[C@@H](Cc2c[nH]c3ccccc23)NC1=O)”, with 99%; and “Ac-CL[dD]PKQKWIQC-NH2 (disulfide 1-11; SMILES CC[C@H](C)[C@@H]1NC(=O)[C@H](Cc2c[nH]c3ccccc23)NC(=O)[C@H](CCCCN)NC(=O)[C@H](CCC(N)=O)NC(=O)[C@H](CCCCN)NC(=O)[C@@H]2CCCN2C(=O)[C@@H](CC(=O)O)NC(=O)[C@H](CC(C)C)NC(=O)[C@@H](NC(C)=O)CSSC[C@@H](C(N)=O)NC(=O)[C@H](CCC(N)=O)NC1=O)”, with 92.1%.
Regarding “Ac-[dC][dQ][dI][dW][dK][dC]-NH2 (disulfide 1-6; SMILES CC[C@@H](C)[C@H]1NC(=O)[C@@H](CCC(N)=O)NC(=O)[C@H](NC(C)=O)CSSC[C@H](C(N)=O)NC(=O)[C@@H](CCCCN)NC(=O)[C@@H](Cc2c[nH]c3ccccc23)NC1=O)”, the “purity (crude or final not stated)” value is reported as 92.3%.
As to “[dK](Octanoyl)[dD]CLDPKQKWIQC-NH2 (disulfide 3-13)”, the “purity (crude or final not stated)” value is 92%.
For “H-[dC][dQ][dI][dW][dK][dQ][dK][dP][dD][dL][dC][Aoc]-OH (disulfide 1-11; SMILES CC[C@@H](C)[C@H]1NC(=O)[C@@H](CCC(N)=O)NC(=O)[C@H](N)CSSC[C@H](C(=O)NCCCCCCCC(=O)O)NC(=O)[C@@H](CC(C)C)NC(=O)[C@@H](CC(=O)O)NC(=O)[C@H]2CCCN2C(=O)[C@@H](CCCCN)NC(=O)[C@@H](CCC(N)=O)NC(=O)[C@@H](CCCCN)NC(=O)[C@@H](Cc2c[nH]c3ccccc23)NC1=O)”, the “purity (crude or final not stated)” value came out at 99%.

(Values after patent US20110038885A1 (priority 2007, published 2011).)
